The source of these data is article PMC2438350, “Comparison of four different colorimetric and fluorometric cytotoxicity assays in a zebrafish liver cell line” (BMC Pharmacology, 2008).

For orientation: EC50 means the concentration giving half of the maximal effect.

The test system of this assay is ZFL cells. Briefly: LDH assay (released lactate dehydrogenase activity), cytotoxicity. The format is cell-based, zebrafish (Danio rerio). Particulars: Danio rerio, read-out: EC50 (50% loss of cell viability), 24 h exposure, 1% FBS, mean ± SD of three experiments. As for the experimental part:
Each compound was dissolved in dimethyl sulfoxide (DMSO) and diluted in a way that all stock solutions were 200 times concentrated compared to the final test concentrations. Concentration ranges were 30 pM-1.97 μM for BaP, 5 nM-5 μM for Flus, 5 nM-11 μM for Tam, and 0.2–43 μM for 4-OHT, which is in the range of in vivo studies with waterborne exposure of zebrafish for BaP, Tam, and 4-OHT [20-22, 29]. For Flusilazole, no studies on fish are available.
For finding the optimal biological test conditions, in the beginning different cell densities were applied using two-fold dilution series in the range of 780–100,000 cells/well and cell viability tests were performed after 24 h. […]
A second set of cells was exposed to the test compounds for the LDH assay, which was performed using the Cytotoxicity Detection Kit LDH (Roche). […] 100 μL of the reaction solution from the kit, containing the detection dye and the catalyst were then added and absorption was measured after 30 min at 490 nm with 655 nm as reference wavelength in an ELISA reader (Model 680, Biorad). As for the other assays, background values from wells without cells were subtracted and average values for the triplicates calculated. Cytotoxicity was then calculated according to the following equation: Cytotoxicity (%) = (experimental value - DMSO control)/(positive control - DMSO control) × 100. […]

As to `CC/C(=C(\c1ccccc1)c1ccc(OCCN(C)C)cc1)c1ccccc1` [Tamoxifen], the EC50 was 1.88 ± 1.01 µM.
